Data as given in PubChem BioAssay AID652243 (Drosophila RNAi Screening Center, 2013).
Test: 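Fly regulators of androgen-dependent reporter output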 (primary screen). Cell system: Drosophila S2R+ cells. Knock-down reagent: long dsRNA against Drosophila genes. Timing: 72 h (48 h, then 24 h hormone). Treatment: synthetic androgen R1881 at 10 nM for 24 h. Measured: 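Firefly light from an androgen-responsive reporter and Renilla control light per well, raw and unnormalised, for each of two replicates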. Direction: firefly reporter light: higher = more light from androgen-responsive reporter; Renilla control light: higher = more constitutive control signal (cell number, transfection). Rule for the call: 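Across duplicate plates, a knock-down whose log firefly/Renilla ratio shifted a set fold down or up from the GFP/LacZ control mean was a hit; the downward cut appears as both 1.5 and 3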. Meaning of the calls: active = hit: reporter lowered or raised; inactive = no hit.
In all, the deposit lists about 24,000 reagents; shown is an unselected part of those that have a named target and a result. In the full data, 246 (1%) got an active call. 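Plates not normalised; calls are printed but the firefly/Renilla ratio behind them is not deposited; fold cut for lowering reported inconsistently.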 Raw values are not corrected between plates. Not stated in the record: the amount of reagent.

gene | DRSC id | firefly reporter light, replicate 1 | firefly reporter light, replicate 2 | Renilla control light, replicate 1 | Renilla control light, replicate 2 | call
vas (retired record) | DRSC22007 | 7.93e5 | 6.74e5 | 1.12e6 | 1.29e6 | inactive
vas (retired record) | DRSC37764 | 1.07e6 | 9.41e5 | 1.88e6 | 1.28e6 | inactive
fat-spondin | DRSC07617 | 1.18e6 | 1.19e6 | 1.86e6 | 1.92e6 | inactive
Rab3 | DRSC07523 | 1.03e6 | 7.11e5 | 2.56e6 | 1.88e6 | inactive
Obp59a (Odorant-binding protein 59a) | DRSC04160 | 2.78e5 | 2.68e5 | 1.85e6 | 1.54e6 | inactive
Nrx-1 (Neurexin 1) | DRSC16184 | 69197 | 90206 | 81022 | 86630 | inactive
lncRNA:CR40465 (long non-coding RNA:CR40465) | DRSC37851 | 7.99e5 | 8.94e5 | 1.36e6 | 1.76e6 | inactive
Dso1 (Daisho1) | DRSC21815 | 3.64e5 | 4.30e5 | 3.19e6 | 4.23e6 | inactive
Dso1 (Daisho1) | DRSC29771 | 5.33e5 | 2.68e5 | 1.60e6 | 1.23e6 | inactive
Eip93F (Ecdysone-induced protein 93F) | DRSC23072 | 6.90e5 | 9.35e5 | 1.35e6 | 2.02e6 | inactive
Eip93F (Ecdysone-induced protein 93F) | DRSC27506 | 2.33e5 | 2.01e5 | 6.59e5 | 7.96e5 | inactive
CG30430 | DRSC22260 | 7.74e5 | 7.72e5 | 1.04e6 | 9.04e5 | inactive
GluRIIA (Glutamate receptor IIA) | DRSC03334 | 88386 | 1.36e5 | 9.35e5 | 8.93e5 | inactive
CG4511 | DRSC15589 | 1.23e5 | 1.23e5 | 2.46e6 | 2.29e6 | inactive
CG4511 | DRSC28640 | 3.19e5 | 3.57e5 | 1.21e6 | 1.20e6 | inactive
eEF2 (eukaryotic translation elongation factor 2) | DRSC03737 | 1.90e5 | 2.87e5 | 1.37e6 | 1.71e6 | inactive
alpha-Est9 (alpha-Esterase-9) | DRSC12621 | 48401 | 92928 | 1.33e6 | 1.51e6 | inactive
CG10904 | DRSC04084 | 2.40e5 | 2.69e5 | 1.81e6 | 2.01e6 | inactive
Acp32CD (Accessory gland protein 32CD) | DRSC01858 | 1.51e5 | 2.26e5 | 1.36e6 | 1.69e6 | inactive
Acp32CD (Accessory gland protein 32CD) | DRSC23817 | 1.14e6 | 1.13e6 | 1.25e6 | 1.00e6 | inactive
Acp32CD (Accessory gland protein 32CD) | DRSC38978 | 9.64e5 | 7.98e5 | 1.79e6 | 1.24e6 | inactive
Camta (Calmodulin-binding transcription activator) | DRSC07272 | 1.29e6 | 4.23e5 | 1.71e6 | 9.12e5 | inactive
Camta (Calmodulin-binding transcription activator) | DRSC23081 | 6.80e5 | 6.71e5 | 1.22e6 | 1.50e6 | inactive
Camta (Calmodulin-binding transcription activator) | DRSC23156 | 7.09e5 | 7.37e5 | 9.09e5 | 1.20e6 | inactive
Camta (Calmodulin-binding transcription activator) | DRSC26757 | 1.41e5 | 1.38e5 | 5.32e5 | 6.37e5 | inactive
Camta (Calmodulin-binding transcription activator) | DRSC27929 | 4.68e5 | 3.41e5 | 1.85e6 | 1.66e6 | inactive

Laid out differently: entries from further up.
vas (retired record) [DRSC37764]
- firefly reporter light, replicate 1: 1.07e6
- firefly reporter light, replicate 2: 9.41e5
- Renilla control light, replicate 1: 1.88e6
- Renilla control light, replicate 2: 1.28e6
- call: inactive

fat-spondin [DRSC07617]
- firefly reporter light, replicate 1: 1.18e6
- firefly reporter light, replicate 2: 1.19e6
- Renilla control light, replicate 1: 1.86e6
- Renilla control light, replicate 2: 1.92e6
- call: inactive
